Reference: article PMC7199855, “GRAF2, WDR44, and MICAL1 mediate Rab8/10/11–dependent export of E-cadherin, MMP14, and CFTR ΔF508” (The Journal of Cell Biology, 2020)
These are yes or no findings as the source states them, for the method shown. In cells and extracts the contact can be indirect. Where a sequence is shown, tags or fusion partners need not be part of it. One block for each binder: values may come before it.

Experiments:
[1] = molecular target: GFP-MICAL3 (human); assay: co-IP; transfected 293T, IP with α-GFP and Protein G Sepharose; 20 mM Hepes pH 7.4, 150 mM NaCl, 2 mM EDTA, 1% IGEPAL CA-630; Western blot
[2] = molecular target: GFP-Rab1 (canine); assay: as above

- binding [1]: no binding
B1: untagged GRAF2 (protein, UniProt A1A4S6 1-786)
chain: MGLQPLEFSDCYLDSPWFRERIRAHEAELERTNKFIKELIKDGKNLIAATKSLSVAQRKFAHSLRDFKFEFIGDAVTDDERCIDASLREFSNFLKNLEEQREIMALSVTETLIKPLEKFRKEQLGAVKEEKKKFDKETEKNYSLIDKHLNLSAKKKDSHLQEADIQVEQNRQHFYELSLEYVCKLQEIQERKKFEFVEPMLSFFQGMFTFYHQGHELAKDFNHYKMELQINIQNTRNRFEGTRSEVEELMNKIRQNPKDHKRASQFTAEGYLYVQEKRPAPFGSSWVKHYCMYRKAAKKFNMIPFEHRSGGKLGDGEVFFLKECTKRHTDSIDRRFCFDIEAADRPGVSLTMQAFSEEERKQWLEALGGKEALSHSFNTAIIPRPEGNAQLDKMGFTIIRKCISAVETRGINDQGLYRVVGVSSKVQRLLSMLMDVKTCNEVDLENSADWEVKTITSALKQYLRSLPEPLMTYELHGDFIVPAKSGSPESRVNAIHFLVHKLPEKNKEMLDILVKHLTNVSNHSKQNLMTVANLGVVFGPTLMRPQEETVAALMDLKFQNIVVEILIENHEKIFRTPPDTTFPEPTCLSASPPNAPPRQSKRQGQRTKRPVAVYNLCLELEDGDNPYPSKEDTPTSSLDSLSSPSPVTTAVPGPPGPDKNHLLADGGSFGDWASTIPGQTRSSMVQWLNPQSPTTTSSNSAVTPLSPGSSPFPFSPPATVADKPPESIRSRKARAVYPCEAEHSSELSFEIGAIFEDVQTSREPGWLEGTLNGKRGLIPQNYVKLL

- binding [2]: no binding
B2: untagged MICAL1 (protein, UniProt Q8TDZ2 1-1067)
chain: MASPTSTNPAHAHFESFLQAQLCQDVLSSFQELCGALGLEPGGGLPQYHKIKDQLNYWSAKSLWTKLDKRAGQPVYQQGRACTSTKCLVVGAGPCGLRVAVELALLGARVVLVEKRTKFSRHNVLHLWPFTIHDLRALGAKKFYGRFCTGTLDHISIRQLQLLLLKVALLLGVEIHWGVTFTGLQPPPRKGSGWRAQLQPNPPAQLANYEFDVLISAAGGKFVPEGFKVREMRGKLAIGITANFVNGRTVEETQVPEISGVARIYNQSFFQSLLKATGIDLENIVYYKDDTHYFVMTAKKQCLLRLGVLRQDWPDTNRLLGSANVVPEALQRFTRAAADFATHGKLGKLEFAQDAHGQPDVSAFDFTSMMRAESSARVQEKHGARLLLGLVGDCLVEPFWPLGTGVARGFLAAFDAAWMVKRWAEGAESLEVLAERESLYQLLSQTSPENMHRNVAQYGLDPATRYPNLNLRAVTPNQVRDLYDVLAKEPVQRNNDKTDTGMPATGSAGTQEELLRWCQEQTAGYPGVHVSDLSSSWADGLALCALVYRLQPGLLEPSELQGLGALEATAWALKVAENELGITPVVSAQAVVAGSDPLGLIAYLSHFHSAFKSMAHSPGPVSQASPGTSSAVLFLSKLQRTLQRSRAKENAEDAGGKKLRLEMEAETPSTEVPPDPEPGVPLTPPSQHQEAGAGDLCALCGEHLYVLERLCVNGHFFHRSCFRCHTCEATLWPGGYEQHPGDGHFYCLQHLPQTDHKAEGSDRGPESPELPTPSENSMPPGLSTPTASQEGAGPVPDPSQPTRRQIRLSSPERQRLSSLNLTPDPEMEPPPKPPRSCSALARHALESSFVGWGLPVQSPQALVAMEKEEKESPFSSEEEEEDVPLDSDVEQALQTFAKTSGTMNNYPTWRRTLLRRAKEEEMKRFCKAQTIQRRLNEIEAALRELEAEGVKLELALRRQSSSPEQQKKLWVGQLLQLVDKKNSLVAEEAELMITVQELNLEEKQWQLDQELRGYMNREENLKTAADRQAEDQVLRKLVDLVNQRDALIRFQEERRLSELALGTGAQG

- binding [1]: no binding
B3: GRAF1b-myc (protein, UniProt Q9UNA1-2 1-759)
chain: MGLPALEFSDCCLDSPHFRETLKSHEAELDKTNKFIKELIKDGKSLISALKNLSSAKRKFADSLNEFKFQCIGDAETDDEMCIARSLQEFATVLRNLEDERIRMIENASEVLITPLEKFRKEQIGAAKEAKKKYDKETEKYCGILEKHLNLSSKKKESQLQEADSQVDLVRQHFYEVSLEYVFKVQEVQERKMFEFVEPLLAFLQGLFTFYHHGYELAKDFGDFKTQLTISIQNTRNRFEGTRSEVESLMKKMKENPLEHKTISPYTMEGYLYVQEKRHFGTSWVKHYCTYQRDSKQITMVPFDQKSGGKGGEDESVILKSCTRRKTDSIEKRFCFDVEAVDRPGVITMQALSEEDRRLWMEAMDGREPVYNSNKDSQSEGTAQLDSIGFSIIRKCIHAVETRGINEQGLYRIVGVNSRVQKLLSVLMDPKTASETETDICAEWEIKTITSALKTYLRMLPGPLMMYQFQRSFIKAAKLENQESRVSEIHSLVHRLPEKNRQMLQLLMNHLANVANNHKQNLMTVANLGVVFGPTLLRPQEETVAAIMDIKFQNIVIEILIENHEKIFNTVPDMPLTNAQLHLSRKKSSDSKPPSCSERPLTLFHTVQSTEKQEQRNSIINSSLESVSSNPNSILNSSSSLQPNMNSSDPDLAVVKPTRPNSLPPNPSPTSPLSPSWPMFSAPSSPMPTSSTSSDSSPVSTPFRKAKALYACKAEHDSELSFTAGTVFDNVHPSQEPGWLEGTLNGKTGLIPENYVEFL
